# Measured values from patent US20170002393A1, “COMPOSITIONS AND METHODS FOR ANTIBODY PRODUCTION” (IMMUNOGEN, INC., priority 2013, published 2017).
# “Also recorded” adds a separate entry of the source. Some entries repeat one wording, which the source may state once for all of them.
# What was measured:
# humanized N901 IgG1 = assay: Covalent modification of antibody (mass spectrometry of deglycosylated antibody); settings: mass spectrometry versus unreduced antibody; 1 mM agent with CHO cell lysate, 3 hours (concentration not given for coenzyme Q0)
# anti-FOLR1 IgG1 = assay: Covalent modification of antibody (absorbance at 610 nm, mass spectrometry)
SMILES,covalent modification of the antibody (humanized N901 IgG1),"covalent modification of the antibody (anti-FOLR1 IgG1; 0.05 mM agent, absorbance at 610 nm, mass spectrometry)","absorbance at 610 nm of eluted neutralized antibody (anti-FOLR1 IgG1; after 0.05 mM methylene blue treatment, 2.2 hours)"
"O=C(O)CCCCC1CCSS1 (racemic) [lipoic acid, 1,2-dithiolane-3-pentanoic acid]",did not covalently modify the antibody,,
"O=C1c2ccccc2C(=O)c2cc(S(=O)(=O)O)ccc21 [AQS, anthraquinone-2-sulfonic acid]",did not covalently modify the antibody,,
"COC(=O)[C@@H](N)CSSC[C@H](N)C(=O)OC [CDME, L-cystine dimethyl ester]",did not covalently modify the antibody,,
"COC1=C(OC)C(=O)C(C)=CC1=O [coenzyme Q0, 2,3-dimethoxy-5-methyl-p-benzoquinone]",not covalently modified,,
"CN(C)c1ccc2nc3ccc(N(C)C)cc3[s+]c2c1 [methylene blue, Methylene blue]",,did not covalently modify the antibody; also recorded: did not lead to the modification of the antibody,0.000
